The target in test [1] is human AQP10-His8 (human) (UniProt Q96PS8). Nature of the test: SDS-PAGE (SDS-resistant oligomers); crude membranes of S. cerevisiae producing AQP10-His8 in a 15-L bioreactor at 15 °C, separated by SDS-PAGE; Coomassie staining or western blotting. In general terms: In western blotting, separated proteins are transferred to a membrane and probed.
For test [2], the target named is T1, human AQP3-TEV-GFP-His10 fusion (human), Q92482.
T1 chain: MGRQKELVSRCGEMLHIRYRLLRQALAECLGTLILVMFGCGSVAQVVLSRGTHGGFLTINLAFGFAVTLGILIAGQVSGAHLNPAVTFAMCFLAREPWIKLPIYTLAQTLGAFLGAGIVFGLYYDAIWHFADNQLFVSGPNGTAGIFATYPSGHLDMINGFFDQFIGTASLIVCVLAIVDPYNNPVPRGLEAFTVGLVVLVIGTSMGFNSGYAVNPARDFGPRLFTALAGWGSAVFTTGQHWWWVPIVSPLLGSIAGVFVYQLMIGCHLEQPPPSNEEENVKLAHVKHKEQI
Nature of the test: SDS-PAGE (SDS-resistant oligomers); peak fractions of Ni-affinity purified, detergent solubilised AQP-TEV-GFP-His10 fusions separated by SDS-PAGE; in-gel fluorescence and Coomassie staining; both purified. The conditions noted are these: remark: other sources report otherwise.

These are yes or no findings as the source states them, for the method shown. Some entries that bind do so weakly or less than the wild type. Sequences can lack the tags named with a protein.

B1: human AQP10-His8 (protein, UniProt Q96PS8 1-301)
chain: MVFTQAPAEIMGHLRIRSLLARQCLAEFLGVFVLMLLTQGAVAQAVTSGETKGNFFTMFLAGSLAVTIAIYVGGNVSGAHLNPAFSLAMCIVGRLPWVKLPIYILVQLLSAFCASGATYVLYHDALQNYTGGNLTVTGPKETASIFATYPAPYLSLNNGFLDQVLGTGMLIVGLLAILDRRNKGVPAGLEPVVVGMLILALGLSMGANCGIPLNPARDLGPRLFTYVAGWGPEVFSAGNGWWWVPVVAPLVGATVGTATYQLLVALHHPEGPEPAQDLVSAQHKASELETPASAQMLECKL
As to B1, in test [1], the binding result is “binds”.

B2: human AQP3-TEV-GFP-His10 fusion, Q92482 1-292 (protein)
chain: T1 chain
As for B2, the binding entry in test [2] is given as “binds”.

Source of the values: PMC5715081, “Purification and functional comparison of nine human Aquaporins produced in Saccharomyces cerevisiae for the purpose of biophysical characterization” (Scientific Reports, 2017).
